The target in the assay is endogenous mouse β-catenin (mouse (endogenous in C57BL/6 and APC^Min/+ colon tissue)) (UniProt Q02248). Description: co-IP; endogenous proteins, nuclear and cytoplasmic fractions of C57BL/6 normal colon tissue and AOM-treated APC^Min/+ adenocarcinoma tissue; IgG as negative control.

The chains behind the UniProt entries cited, without tags or fusion partners.
UniProt Q02248: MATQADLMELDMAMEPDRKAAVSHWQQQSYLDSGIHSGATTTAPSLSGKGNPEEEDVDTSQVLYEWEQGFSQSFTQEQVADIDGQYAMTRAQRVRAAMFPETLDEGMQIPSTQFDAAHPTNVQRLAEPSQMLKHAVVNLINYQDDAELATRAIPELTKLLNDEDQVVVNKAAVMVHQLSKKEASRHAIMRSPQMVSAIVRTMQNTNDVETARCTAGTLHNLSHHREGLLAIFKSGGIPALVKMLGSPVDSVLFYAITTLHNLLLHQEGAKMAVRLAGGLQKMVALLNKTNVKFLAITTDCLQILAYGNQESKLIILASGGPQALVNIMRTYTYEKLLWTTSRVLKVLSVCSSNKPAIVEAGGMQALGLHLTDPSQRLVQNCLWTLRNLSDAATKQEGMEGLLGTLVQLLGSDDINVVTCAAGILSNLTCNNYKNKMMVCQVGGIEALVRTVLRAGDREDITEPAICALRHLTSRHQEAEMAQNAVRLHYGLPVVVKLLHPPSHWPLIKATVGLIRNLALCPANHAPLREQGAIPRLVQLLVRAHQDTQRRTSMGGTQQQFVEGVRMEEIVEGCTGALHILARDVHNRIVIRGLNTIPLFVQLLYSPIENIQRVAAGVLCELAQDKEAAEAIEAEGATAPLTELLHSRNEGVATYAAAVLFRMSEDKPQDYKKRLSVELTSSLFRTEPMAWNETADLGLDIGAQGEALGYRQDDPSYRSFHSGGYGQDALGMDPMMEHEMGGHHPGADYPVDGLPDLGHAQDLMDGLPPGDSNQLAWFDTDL
UniProt P47811: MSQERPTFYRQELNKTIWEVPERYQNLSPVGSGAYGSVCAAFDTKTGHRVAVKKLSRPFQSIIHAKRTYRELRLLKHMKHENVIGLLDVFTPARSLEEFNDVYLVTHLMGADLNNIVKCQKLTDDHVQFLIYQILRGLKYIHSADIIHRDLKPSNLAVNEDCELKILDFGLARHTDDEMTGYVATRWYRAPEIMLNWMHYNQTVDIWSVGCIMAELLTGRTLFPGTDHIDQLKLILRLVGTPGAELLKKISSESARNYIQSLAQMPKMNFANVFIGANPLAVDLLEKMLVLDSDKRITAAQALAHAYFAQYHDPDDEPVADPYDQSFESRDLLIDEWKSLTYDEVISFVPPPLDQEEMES

Results on 1 substance are retold here after article PMC7994846.

These are yes or no findings as the source states them, for the method shown. In cells and extracts the contact can be indirect. Some results given as binding are weak or reduced against the parent protein; the word gives no strength.

With “endogenous mouse p38α (from UniProt P47811 1-360) (enzyme)”, the binding result was “binds”.
